This experiment addresses VpPI (Viola philippica). Briefly: two-hybrid; yeast GAL4 two-hybrid system, strain AH109; BD and AD fusion plasmids co-transformed; growth on SD plates lacking Leu, Trp, Ade and His, confirmed by non-lethal beta-galactosidase assay; which protein was the BD and which the AD fusion is not told.

Results are given in words; binding and its absence hold for the method and conditions named. A result given as binding can be weak or reduced; the word gives no strength.

For VpTM6-1 (from UniProt A0A1S5T3I6), the binding result is given as “binds”. With VpTM6-2 (from UniProt A0A1S5T3I1), the binding result is given as “binds weakly”.

Values taken from paper PMC4936093.
